# Results reported in the supplement of paper PMC12819154, “High-throughput peptide-centric local stability assay extends protein–ligand identification to membrane proteins, tissues and bacteria” (Nature Structural & Molecular Biology, 2025).
# By UniProt entry, the sequences of proteins in these tests, tags left out. Where a name states a change or a piece, a line headed by the entry shows the natural chain unless it says otherwise.
# UniProt Q5SSZ5: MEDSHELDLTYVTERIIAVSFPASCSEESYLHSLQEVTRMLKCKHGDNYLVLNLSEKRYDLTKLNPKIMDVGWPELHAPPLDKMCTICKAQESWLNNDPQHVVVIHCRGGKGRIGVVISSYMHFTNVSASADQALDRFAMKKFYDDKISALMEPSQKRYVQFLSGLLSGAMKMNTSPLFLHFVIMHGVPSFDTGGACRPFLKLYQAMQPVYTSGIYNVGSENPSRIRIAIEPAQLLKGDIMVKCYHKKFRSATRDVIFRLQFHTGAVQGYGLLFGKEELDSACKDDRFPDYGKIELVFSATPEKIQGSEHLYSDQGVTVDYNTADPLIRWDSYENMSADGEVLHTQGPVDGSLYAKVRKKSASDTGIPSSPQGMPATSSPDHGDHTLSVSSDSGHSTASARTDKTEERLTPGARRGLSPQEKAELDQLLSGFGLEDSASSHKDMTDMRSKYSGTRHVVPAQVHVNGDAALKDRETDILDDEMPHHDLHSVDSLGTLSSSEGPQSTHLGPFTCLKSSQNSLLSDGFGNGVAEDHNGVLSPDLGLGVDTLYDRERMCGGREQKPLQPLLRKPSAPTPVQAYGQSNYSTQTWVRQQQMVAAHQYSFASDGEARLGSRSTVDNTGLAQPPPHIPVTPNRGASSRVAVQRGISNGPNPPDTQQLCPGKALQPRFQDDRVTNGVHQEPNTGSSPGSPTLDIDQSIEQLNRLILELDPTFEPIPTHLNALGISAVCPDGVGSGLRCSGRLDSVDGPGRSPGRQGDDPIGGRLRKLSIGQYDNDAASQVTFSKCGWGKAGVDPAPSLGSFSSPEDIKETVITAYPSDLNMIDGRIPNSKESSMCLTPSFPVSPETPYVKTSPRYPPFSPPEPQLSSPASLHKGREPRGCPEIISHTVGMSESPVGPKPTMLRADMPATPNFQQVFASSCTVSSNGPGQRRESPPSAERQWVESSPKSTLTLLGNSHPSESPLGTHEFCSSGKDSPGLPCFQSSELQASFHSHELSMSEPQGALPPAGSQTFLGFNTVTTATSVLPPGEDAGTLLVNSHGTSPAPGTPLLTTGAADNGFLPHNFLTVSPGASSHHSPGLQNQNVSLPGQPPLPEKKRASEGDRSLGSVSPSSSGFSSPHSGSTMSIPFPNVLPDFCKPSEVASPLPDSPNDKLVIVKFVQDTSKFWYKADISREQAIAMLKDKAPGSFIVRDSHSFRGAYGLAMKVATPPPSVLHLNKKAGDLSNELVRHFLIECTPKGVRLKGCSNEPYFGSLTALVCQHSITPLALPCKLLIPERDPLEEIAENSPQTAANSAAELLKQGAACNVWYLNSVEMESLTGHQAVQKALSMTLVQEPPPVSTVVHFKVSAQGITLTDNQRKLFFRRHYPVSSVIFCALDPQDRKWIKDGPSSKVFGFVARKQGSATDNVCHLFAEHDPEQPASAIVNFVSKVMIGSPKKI
# UniProt Q5HZH2: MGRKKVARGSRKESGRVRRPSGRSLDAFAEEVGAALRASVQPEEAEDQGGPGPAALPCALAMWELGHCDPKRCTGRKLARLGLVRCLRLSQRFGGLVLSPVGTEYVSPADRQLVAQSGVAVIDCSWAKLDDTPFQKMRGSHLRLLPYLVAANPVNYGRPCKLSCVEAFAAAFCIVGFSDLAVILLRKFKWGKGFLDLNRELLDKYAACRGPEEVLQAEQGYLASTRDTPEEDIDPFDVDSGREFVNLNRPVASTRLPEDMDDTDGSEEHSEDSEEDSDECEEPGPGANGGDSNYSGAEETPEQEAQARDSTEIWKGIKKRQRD
# UniProt Q5SF07: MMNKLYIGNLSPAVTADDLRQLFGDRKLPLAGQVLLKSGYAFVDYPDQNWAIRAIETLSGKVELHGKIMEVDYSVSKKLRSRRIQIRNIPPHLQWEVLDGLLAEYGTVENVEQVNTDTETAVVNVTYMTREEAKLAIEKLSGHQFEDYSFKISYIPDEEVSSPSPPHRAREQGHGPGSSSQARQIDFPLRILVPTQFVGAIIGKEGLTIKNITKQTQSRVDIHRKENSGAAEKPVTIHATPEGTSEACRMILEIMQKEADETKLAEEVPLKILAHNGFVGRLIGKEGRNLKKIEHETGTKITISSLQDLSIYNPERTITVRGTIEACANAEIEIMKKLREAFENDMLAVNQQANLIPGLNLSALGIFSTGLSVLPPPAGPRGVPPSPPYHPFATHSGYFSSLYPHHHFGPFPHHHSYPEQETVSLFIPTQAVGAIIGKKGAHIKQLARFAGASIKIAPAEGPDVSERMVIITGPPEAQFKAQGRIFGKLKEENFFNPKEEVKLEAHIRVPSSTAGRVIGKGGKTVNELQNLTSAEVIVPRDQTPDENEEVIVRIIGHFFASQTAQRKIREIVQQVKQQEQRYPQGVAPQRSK
# UniProt Q61025: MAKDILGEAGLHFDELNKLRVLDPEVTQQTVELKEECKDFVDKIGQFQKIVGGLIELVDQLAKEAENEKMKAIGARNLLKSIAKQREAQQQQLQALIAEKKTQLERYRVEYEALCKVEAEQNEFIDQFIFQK
# UniProt Q5SQY2: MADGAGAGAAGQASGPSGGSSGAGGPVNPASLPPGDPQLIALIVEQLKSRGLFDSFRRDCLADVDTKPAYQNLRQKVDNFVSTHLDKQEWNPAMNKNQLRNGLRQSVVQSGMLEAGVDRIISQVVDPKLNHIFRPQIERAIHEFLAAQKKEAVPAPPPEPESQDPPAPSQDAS
# UniProt Q60865: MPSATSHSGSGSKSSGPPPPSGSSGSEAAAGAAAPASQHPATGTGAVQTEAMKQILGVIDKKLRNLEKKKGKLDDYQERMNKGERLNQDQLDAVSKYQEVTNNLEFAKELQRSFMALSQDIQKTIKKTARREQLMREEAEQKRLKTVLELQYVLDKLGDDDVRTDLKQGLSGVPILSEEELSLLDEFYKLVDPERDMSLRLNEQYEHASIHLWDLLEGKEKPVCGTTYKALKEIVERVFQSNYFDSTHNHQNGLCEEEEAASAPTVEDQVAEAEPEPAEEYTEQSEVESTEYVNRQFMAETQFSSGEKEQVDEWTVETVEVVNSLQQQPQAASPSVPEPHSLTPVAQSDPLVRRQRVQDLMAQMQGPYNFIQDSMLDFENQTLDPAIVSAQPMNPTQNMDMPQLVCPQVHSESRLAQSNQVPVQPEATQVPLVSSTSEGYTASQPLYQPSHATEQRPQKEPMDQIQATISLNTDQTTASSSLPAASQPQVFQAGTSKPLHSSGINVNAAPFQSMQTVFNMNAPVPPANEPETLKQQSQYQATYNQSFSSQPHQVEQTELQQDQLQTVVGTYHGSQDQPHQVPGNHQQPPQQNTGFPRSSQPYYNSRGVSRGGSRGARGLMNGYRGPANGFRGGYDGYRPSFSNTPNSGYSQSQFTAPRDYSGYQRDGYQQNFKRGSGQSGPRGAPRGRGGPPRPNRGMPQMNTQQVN
# UniProt Q5RJG1: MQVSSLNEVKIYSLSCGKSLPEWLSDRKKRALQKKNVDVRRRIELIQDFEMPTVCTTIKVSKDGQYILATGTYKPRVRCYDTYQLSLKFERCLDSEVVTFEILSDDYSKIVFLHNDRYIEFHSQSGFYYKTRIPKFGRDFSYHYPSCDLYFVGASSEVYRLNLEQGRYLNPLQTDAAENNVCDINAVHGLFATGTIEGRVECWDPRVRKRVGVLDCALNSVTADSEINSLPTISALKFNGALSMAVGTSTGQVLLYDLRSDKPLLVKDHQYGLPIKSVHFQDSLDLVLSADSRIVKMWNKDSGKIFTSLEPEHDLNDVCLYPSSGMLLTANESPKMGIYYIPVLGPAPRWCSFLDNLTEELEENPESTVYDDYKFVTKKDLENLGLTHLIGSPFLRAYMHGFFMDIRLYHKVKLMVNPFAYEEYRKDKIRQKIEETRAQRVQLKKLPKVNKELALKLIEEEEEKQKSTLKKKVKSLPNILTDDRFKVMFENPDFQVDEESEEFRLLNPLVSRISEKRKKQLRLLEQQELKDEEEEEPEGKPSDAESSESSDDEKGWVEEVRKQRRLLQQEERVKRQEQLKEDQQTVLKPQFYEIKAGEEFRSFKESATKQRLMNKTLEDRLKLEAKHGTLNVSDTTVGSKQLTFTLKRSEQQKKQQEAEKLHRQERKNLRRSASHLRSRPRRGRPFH
# UniProt Q60575: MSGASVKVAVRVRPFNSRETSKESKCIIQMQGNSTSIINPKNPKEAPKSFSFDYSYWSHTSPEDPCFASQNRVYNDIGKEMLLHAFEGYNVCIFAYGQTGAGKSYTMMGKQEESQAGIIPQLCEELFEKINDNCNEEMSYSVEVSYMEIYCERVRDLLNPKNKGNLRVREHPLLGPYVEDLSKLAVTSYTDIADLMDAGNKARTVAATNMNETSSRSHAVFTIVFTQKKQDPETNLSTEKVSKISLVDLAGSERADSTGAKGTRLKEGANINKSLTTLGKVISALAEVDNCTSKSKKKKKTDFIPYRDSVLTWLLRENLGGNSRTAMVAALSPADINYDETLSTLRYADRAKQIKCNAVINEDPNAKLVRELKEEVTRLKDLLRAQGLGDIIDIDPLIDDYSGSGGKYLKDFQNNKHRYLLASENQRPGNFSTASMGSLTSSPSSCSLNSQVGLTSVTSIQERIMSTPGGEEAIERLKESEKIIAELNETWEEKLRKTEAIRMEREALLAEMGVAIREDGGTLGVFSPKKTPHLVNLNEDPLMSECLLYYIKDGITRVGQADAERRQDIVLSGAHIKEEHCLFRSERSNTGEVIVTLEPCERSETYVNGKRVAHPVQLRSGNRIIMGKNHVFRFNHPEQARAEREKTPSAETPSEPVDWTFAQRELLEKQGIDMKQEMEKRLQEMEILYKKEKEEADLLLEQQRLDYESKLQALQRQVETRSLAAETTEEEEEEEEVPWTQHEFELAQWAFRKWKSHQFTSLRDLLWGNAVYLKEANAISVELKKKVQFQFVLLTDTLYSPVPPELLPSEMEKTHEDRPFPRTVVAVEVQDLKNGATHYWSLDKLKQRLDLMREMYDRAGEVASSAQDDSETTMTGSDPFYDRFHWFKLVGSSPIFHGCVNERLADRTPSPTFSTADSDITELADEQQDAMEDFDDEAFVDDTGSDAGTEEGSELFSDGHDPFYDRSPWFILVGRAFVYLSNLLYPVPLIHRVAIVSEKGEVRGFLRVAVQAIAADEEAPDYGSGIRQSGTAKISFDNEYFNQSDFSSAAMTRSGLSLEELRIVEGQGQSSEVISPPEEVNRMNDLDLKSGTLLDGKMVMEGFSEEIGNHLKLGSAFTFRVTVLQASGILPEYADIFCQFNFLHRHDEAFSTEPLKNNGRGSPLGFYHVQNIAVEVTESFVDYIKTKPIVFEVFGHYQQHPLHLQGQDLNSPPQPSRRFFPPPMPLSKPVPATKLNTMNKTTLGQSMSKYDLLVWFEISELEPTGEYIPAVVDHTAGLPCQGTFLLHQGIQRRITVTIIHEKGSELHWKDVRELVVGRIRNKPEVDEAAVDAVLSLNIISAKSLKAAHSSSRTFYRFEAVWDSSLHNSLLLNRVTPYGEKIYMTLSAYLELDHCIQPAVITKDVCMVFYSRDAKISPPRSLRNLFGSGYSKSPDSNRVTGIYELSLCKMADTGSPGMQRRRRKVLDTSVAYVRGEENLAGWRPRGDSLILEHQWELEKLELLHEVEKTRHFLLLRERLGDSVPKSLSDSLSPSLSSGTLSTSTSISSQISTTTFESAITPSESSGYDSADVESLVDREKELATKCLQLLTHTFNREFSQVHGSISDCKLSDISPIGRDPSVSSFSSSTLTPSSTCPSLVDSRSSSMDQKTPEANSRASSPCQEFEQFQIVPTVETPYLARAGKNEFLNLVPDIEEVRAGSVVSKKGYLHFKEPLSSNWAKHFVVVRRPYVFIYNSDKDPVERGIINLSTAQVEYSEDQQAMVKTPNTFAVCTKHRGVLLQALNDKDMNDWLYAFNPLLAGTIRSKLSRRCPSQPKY
# UniProt Q5U458: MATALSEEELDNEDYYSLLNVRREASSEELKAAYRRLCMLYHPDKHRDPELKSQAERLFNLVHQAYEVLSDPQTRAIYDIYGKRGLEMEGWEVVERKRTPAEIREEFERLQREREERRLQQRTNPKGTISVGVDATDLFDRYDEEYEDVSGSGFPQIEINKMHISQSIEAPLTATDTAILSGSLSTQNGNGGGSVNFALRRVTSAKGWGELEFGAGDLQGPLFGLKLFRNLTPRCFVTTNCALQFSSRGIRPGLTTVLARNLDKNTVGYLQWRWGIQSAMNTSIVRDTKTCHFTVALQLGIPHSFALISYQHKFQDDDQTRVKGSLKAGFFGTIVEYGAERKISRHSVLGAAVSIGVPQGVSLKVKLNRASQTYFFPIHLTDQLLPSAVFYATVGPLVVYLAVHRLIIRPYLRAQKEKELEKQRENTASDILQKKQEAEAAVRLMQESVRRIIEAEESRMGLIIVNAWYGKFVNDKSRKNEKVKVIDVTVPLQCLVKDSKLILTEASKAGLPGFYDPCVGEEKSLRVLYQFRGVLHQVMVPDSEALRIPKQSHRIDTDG
# UniProt Q60876: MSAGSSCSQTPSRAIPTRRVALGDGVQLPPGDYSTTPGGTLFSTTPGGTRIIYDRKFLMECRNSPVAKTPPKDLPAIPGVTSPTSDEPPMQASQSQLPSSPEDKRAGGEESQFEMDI
# Some of the results follow. Most values lie at the level of the controls, where differences are scatter.
# Compound: CN[C@@H]1C[C@H]2O[C@@](C)([C@@H]1OC)n1c3ccccc3c3c4c(c5c6ccccc6n2c5c31)C(=O)NC4 [staurosporine]
# Experiment: log2 fold change of tryptic peptide abundance, ligand vs vehicle (limited proteolysis) (log2 ratio); higher = more trypsin-susceptible (destabilized)
# Conditions: ligand concentration: 20 uM; sample: mouse liver crude lysate; replicate design: treated separately
row,Target,log2 fold change
1,"UniProt Q5SSZ5 (peptide sequence: DKAPGSFIVR, peptide start residue: 1183)",-0.337
2,"UniProt Q61286 (peptide sequence: RRPLHDSVALDPLQAK, peptide start residue: 166)",0.534
3,"UniProt Q5HZH2 (peptide sequence: LDDTPFQK, peptide start residue: 129)",0.103
4,"UniProt Q5U4C9 (peptide sequence: VTESTGAITSISK, peptide start residue: 551)",-0.567
5,"UniProt Q5SF07 (peptide sequence: LAEEVPLK, peptide start residue: 264)",-0.334
6,"UniProt Q61093 (peptide sequence: QSISNSESGPR, peptide start residue: 549)",-0.494
7,"UniProt Q61025 (peptide sequence: DILGEAGLHFDELNK, peptide start residue: 4)",0.071
8,"UniProt Q5SQY2 (peptide sequence: GLFDSFRR, peptide start residue: 51)",-0.187
9,"UniProt Q61292 (peptide sequence: EQVGDQYQTVR, peptide start residue: 1705)",-0.503
10,"UniProt Q61072 (peptide sequence: QPAQFPSRPPPPQPK, peptide start residue: 808)",-0.217
11,"UniProt Q61074 (peptide sequence: ALQDAFLAIDAK, peptide start residue: 93)",0.226
12,"UniProt Q61033 (peptide sequence: AATQASSTESCDK, peptide start residue: 550)",-0.683
13,"UniProt Q5SSH8 (peptide sequence: GMEANEQEQR, peptide start residue: 158)",-0.267
14,"UniProt Q5UAK0 (peptide sequence: YNLHPGVTDYMDR, peptide start residue: 349)",0.269
15,"UniProt Q60865 (peptide sequence: SSQPYYNSR, peptide start residue: 598)",0.205
16,"UniProt Q5RJG1 (peptide sequence: SLPEWLSDR, peptide start residue: 19)",-0.2
17,"UniProt Q60575 (peptide sequence: SETYVNGKR, peptide start residue: 603)",0.773
18,"UniProt Q5FWK3 (peptide sequence: HQIVEVAGDDKYGR, peptide start residue: 70)",-0.395
19,"UniProt Q5PSV9 (peptide sequence: EPPGHQHLVHTSPVHTELLR, peptide start residue: 739)",-0.682
20,"UniProt Q5SNZ0 (peptide sequence: QSLQNCQNLSK, peptide start residue: 519)",0.345
21,"UniProt Q5U458 (peptide sequence: AIYDIYGK, peptide start residue: 76)",0.326
22,"UniProt Q60876 (peptide sequence: KFLMECR, peptide start residue: 56)",0.0744
23,"UniProt Q5NCS9 (peptide sequence: VLLELLRK, peptide start residue: 253)",-0.0274
24,"UniProt Q61017 (peptide sequence: MEVEQLKK, peptide start residue: 13)",0.0573
